These results are taken from article PMC5467174.

These are yes or no findings as the source states them, for the method shown. In cells and extracts the contact can be indirect. Here binding means that the protein was enriched with, or labelled near, the bait; the list need not be complete.

In assay [1] the target is Ago2/TNRC6C split-BioID pair (CBirA*-Ago2 with NBirA*-TNRC6C). Put plainly: proximity labelling; split-BioID in transiently transfected HeLa 11ht cells (CBirA*-Ago2 with NBirA*-Dicer or NBirA*-TNRC6C); 50 μM biotin, 200 ng/ml doxycycline, 24 h; capture on streptavidin beads, MS with label-free quantification, triplicates; enrichment over six unrelated BioID runs and the GFP control.

The target is the same in assay [2]. As to the kind of experiment: proximity labelling; split-BioID in transiently transfected HeLa 11ht cells (CBirA*-Ago2 with NBirA*-Dicer, -TNRC6C or -GFP); streptavidin capture of the biotinylated proteins, western blot of the eluates.

B1: ATXN2L (protein, UniProt Q8WWM7 1-1075)
chain: MLKPQPLQQPSQPQQPPPTQQAVARRPPGGTSPPNGGLPGPLATSAAPPGPPAAASPCLGPVAAAGSGLRRGAEGILAPQPPPPQQHQERPGAAAIGSARGQSTGKGPPQSPVFEGVYNNSRMLHFLTAVVGSTCDVKVKNGTTYEGIFKTLSSKFELAVDAVHRKASEPAGGPRREDIVDTMVFKPSDVMLVHFRNVDFNYATKDKFTDSAIAMNSKVNGEHKEKVLQRWEGGDSNSDDYDLESDMSNGWDPNEMFKFNEENYGVKTTYDSSLSSYTVPLEKDNSEEFRQRELRAAQLAREIESSPQYRLRIAMENDDGRTEEEKHSAVQRQGSGRESPSLASREGKYIPLPQRVREGPRGGVRCSSSRGGRPGLSSLPPRGPHHLDNSSPGPGSEARGINGGPSRMSPKAQRPLRGAKTLSSPSNRPSGETSVPPPPAVGRMYPPRSPKSAAPAPISASCPEPPIGSAVPTSSASIPVTSSVSDPGVGSISPASPKISLAPTDVKELSTKEPGRTLEPQELARIAGKVPGLQNEQKRFQLEELRKFGAQFKLQPSSSPENSLDPFPPRILKEEPKGKEKEVDGLLTSEPMGSPVSSKTESVSDKEDKPPLAPSGGTEGPEQPPPPCPSQTGSPPVGLIKGEDKDEGPVAEQVKKSTLNPNAKEFNPTKPLLSVNKSTSTPTSPGPRTHSTPSIPVLTAGQSGLYSPQYISYIPQIHMGPAVQAPQMYPYPVSNSVPGQQGKYRGAKGSLPPQRSDQHQPASAPPMMQAAAAAGPPLVAATPYSSYIPYNPQQFPGQPAMMQPMAHYPSQPVFAPMLQSNPRMLTSGSHPQAIVSSSTPQYPSAEQPTPQALYATVHQSYPHHATQLHAHQPQPATTPTGSQPQSQHAAPSPVQHQAGQAPHLGSGQPQQNLYHPGALTGTPPSLPPGPSAQSPQSSFPQPAAVYAIHHQQLPHGFTNMAHVTQAHVQTGITAAPPPHPGAPHPPQVMLLHPPQSHGGPPQGAVPQSGVPALSASTPSPYPYIGHPQGEQPGQAPGFPGGADDRIREFSLAGGIWHGRAEGLQVGQDARVLGGE
With B1, in assay [1], the binding result is reported as “binds”.

B2: RC3H2 (protein, UniProt Q9HBD1 1-1191)
chain: MPVQAAQWTEFLSCPICYNEFDENVHKPISLGCSHTVCKTCLNKLHRKACPFDQTAINTDIDVLPVNFALLQLVGAQVPDHQSIKLSNLGENKHYEVAKKCVEDLALYLKPLSGGKGVASLNQSALSRPMQRKLVTLVNCQLVEEEGRVRAMRAARSLGERTVTELILQHQNPQQLSANLWAAVRARGCQFLGPAMQEEALKLVLLALEDGSALSRKVLVLFVVQRLEPRFPQASKTSIGHVVQLLYRASCFKVTKRDEDSSLMQLKEEFRSYEALRREHDAQIVHIAMEAGLRISPEQWSSLLYGDLAHKSHMQSIIDKLQSPESFAKSVQELTIVLQRTGDPANLNRLRPHLELLANIDPNPDAVSPTWEQLENAMVAVKTVVHGLVDFIQNYSRKGHETPQPQPNSKYKTSMCRDLRQQGGCPRGTNCTFAHSQEELEKYRLRNKKINATVRTFPLLNKVGVNNTVTTTAGNVISVIGSTETTGKIVPSTNGISNAENSVSQLISRSTDSTLRALETVKKVGKVGANGQNAAGPSADSVTENKIGSPPKTPVSNVAATSAGPSNVGTELNSVPQKSSPFLTRVPVYPPHSENIQYFQDPRTQIPFEVPQYPQTGYYPPPPTVPAGVAPCVPRFVRSNNVPESSLPPASMPYADHYSTFSPRDRMNSSPYQPPPPQPYGPVPPVPSGMYAPVYDSRRIWRPPMYQRDDIIRSNSLPPMDVMHSSVYQTSLRERYNSLDGYYSVACQPPSEPRTTVPLPREPCGHLKTSCEEQIRRKPDQWAQYHTQKAPLVSSTLPVATQSPTPPSPLFSVDFRADFSESVSGTKFEEDHLSHYSPWSCGTIGSCINAIDSEPKDVIANSNAVLMDLDSGDVKRRVHLFETQRRTKEEDPIIPFSDGPIISKWGAISRSSRTGYHTTDPVQATASQGSATKPISVSDYVPYVNAVDSRWSSYGNEATSSAHYVERDRFIVTDLSGHRKHSSTGDLLSLELQQAKSNSLLLQREANALAMQQKWNSLDEGRHLTLNLLSKEIELRNGELQSDYTEDATDTKPDRDIELELSALDTDEPDGQSEPIEEILDIQLGISSQNDQLLNGMAVENGHPVQQHQKEPPKQKKQSLGEDHVILEEQKTILPVTSCFSQPLPVSISNASCLPITTSVSAGNLILKTHVMSEDKNDFLKPVANGKMVNS
As to B2, the binding result in assay [1] is recorded as “binds”.

B3: GIGYF2 (protein, UniProt Q6Y7W6 1-1299)
chain: MAAETQTLNFGPEWLRALSSGGSITSPPLSPALPKYKLADYRYGREEMLALFLKDNKIPSDLLDKEFLPILQEEPLPPLALVPFTEEEQRNFSMSVNSAAVLRLTGRGGGGTVVGAPRGRSSSRGRGRGRGECGFYQRSFDEVEGVFGRGGGREMHRSQSWEERGDRRFEKPGRKDVGRPNFEEGGPTSVGRKHEFIRSESENWRIFREEQNGEDEDGGWRLAGSRRDGERWRPHSPDGPRSAGWREHMERRRRFEFDFRDRDDERGYRRVRSGSGSIDDDRDSLPEWCLEDAEEEMGTFDSSGAFLSLKKVQKEPIPEEQEMDFRPVDEGEECSDSEGSHNEEAKEPDKTNKKEGEKTDRVGVEASEETPQTSSSSARPGTPSDHQSQEASQFERKDEPKTEQTEKAEEETRMENSLPAKVPSRGDEMVADVQQPLSQIPSDTASPLLILPPPVPNPSPTLRPVETPVVGAPGMGSVSTEPDDEEGLKHLEQQAEKMVAYLQDSALDDERLASKLQEHRAKGVSIPLMHEAMQKWYYKDPQGEIQGPFNNQEMAEWFQAGYFTMSLLVKRACDESFQPLGDIMKMWGRVPFSPGPAPPPHMGELDQERLTRQQELTALYQMQHLQYQQFLIQQQYAQVLAQQQKAALSSQQQQQLALLLQQFQTLKMRISDQNIIPSVTRSVSVPDTGSIWELQPTASQPTVWEGGSVWDLPLDTTTPGPALEQLQQLEKAKAAKLEQERREAEMRAKREEEERKRQEELRRQQEEILRRQQEEERKRREEEELARRKQEEALRRQREQEIALRRQREEEERQQQEEALRRLEERRREEEERRKQEELLRKQEEEAAKWAREEEEAQRRLEENRLRMEEEAARLRHEEEERKRKELEVQRQKELMRQRQQQQEALRRLQQQQQQQQLAQMKLPSSSTWGQQSNTTACQSQATLSLAEIQKLEEERERQLREEQRRQQRELMKALQQQQQQQQQKLSGWGNVSKPSGTTKSLLEIQQEEARQMQKQQQQQQQHQQPNRARNNTHSNLHTSIGNSVWGSINTGPPNQWASDLVSSIWSNADTKNSNMGFWDDAVKEVGPRNSTNKNKNNASLSKSVGVSNRQNKKVEEEEKLLKLFQGVNKAQDGFTQWCEQMLHALNTANNLDVPTFVSFLKEVESPYEVHDYIRAYLGDTSEAKEFAKQFLERRAKQKANQQRQQQQLPQQQQQQPPQQPPQQPQQQDSVWGMNHSTLHSVFQTNQSNNQQSNFEAVQSGKKKKKQKMVRADPSLLGFSVNASSERLNMGEIETLDDY
In the case of B3, the binding entry in assay [1] and in assay [2] was “binds” throughout.
